Reference: patent US5834429A, “Small peptides which inhibit binding to T-4 receptors and act as immunogens” (priority 1993, dated 1998)
At least one peptide structure holds a part that was inferred or is arguable (an end, a ring closure or a residue).

Columns and labels:
[1] = test system: T4 antigen (gp120 receptor) on fresh rat hippocampal membranes; assay: Displacement of specific 125I-gp120 binding to brain membranes
Experimental: HTLV-IIIb isolate of HIV was propaged in H9 cells, and the gp120 was isolated by immunoaffinity chromatography and preparative NaDodSO4 /PAGE. Purified gp120 was labeled with ^125 I by the chloramine-T method.
Fresh human, monkey, and rat hippocampus were quickly homogenized (POLYTRON, Brinkmann Instruments) in 100 vol of ice-cold 50 mM Hepes (pH 7.4). The membranes collected by centrifugation (15,000×g) were washed in the original buffer volume and were used fresh or stored at -70° C. Before use, brain membranes and highly purified T cells (ref. 16; gift of Larry Wahl) were preincubated for 15-30 min in phosphate-buffered saline (PBS). Membranes derived from 2 mg (initial wet weight) of brain (.chi.100 μg of protein) were incubated with 28,000 cpm of ^125 I-gp120 for 1 hr at 37° C. in 200 μl (final volume) of 50 mM Hepes containing 0.1% bovine serum albumin and the peptidase inhibitors bacitracin (0.005%), aprotinin (0.005%), leupeptin (0.001%), and chymostatin (0.001%). Incubations were rapidly vacuum-filtered and counted to determine the receptor-bound material.

HTLV-III virus (HIV) = assay: Blockade of viral infection of human T cells (reverse transcriptase activity); assay type: cell-based
Experimental: Separation of T-Lymphocyte Subsets. Subsets of T cells were obtained by treatment of PERCOLL density-purified peripheral blood T cells with specific monoclonal antibodies (T4 or T8) at 10 μg/ml. The treated cells were then panned (21) on a plastic Petri dish that was coated with goat [F(ab')2 ] anti-mouse immunoglobulin (Sero Lab, Eastbury, Mass.) for 30 min at 4° C. The nonadherent cells were then removed, washed, and analyzed for reactivity by flow cytometry. The separated T4 and T8 cell populations have <5% contamination of other T-cell subsets. Cells were then cultured with phytohemagglutinin (1 μg/ml) for 72 hr and exposed to HIV as described below. Infected cells were phenotypically characterized when cytotoxicity assays were performed.
Virus Infection. The HTLV-III virus used for infection was isolated from an interleukin 2 (IL-2)-dependent cultured T-cell line established from fresh AIDS patient material and passaged into HuT 78, a permissive IL-2-independent cell line.

C[C@H](N)C(=O)N[C@@H](CO)C(=O)N[C@H](C(=O)N[C@H](C(=O)N[C@H](C(=O)N[C@@H](CC(N)=O)C(=O)N[C@@H](Cc1ccc(O)cc1)C(=O)N[C@@H](C(N)=O)[C@H](C)O)[C@@H](C)O)[C@@H](C)O)[C@@H](C)O [D-[Thr]8-peptide T-amide]
rank order of potencies in inhibiting receptor binding ([1]; four peptides): D-[Ala]1 -peptide T-amide>D-[Ala]1 -peptide T>peptide T>D-[Thr]8 -peptide T-amide
loss of receptor binding activity relative to peptide T ([1]; rat brain membranes): ≥ 100 fold
rank order of potencies in inhibiting viral infectivity (HTLV-III virus (HIV); four peptides, FIG. 3): D-[Ala]1 -peptide T-amide>D-[Ala]1 -peptide T>peptide T>D-[Thr]8 -peptide T-amide
concentration needed for significant inhibition of viral infection, relative to the active peptides (HTLV-III virus (HIV); human T cells): 100 fold
